Measurements as given in PubChem BioAssay AID504444 (National Center for Advancing Translational Sciences (NCATS), 2011).
Out of some 360,000 compounds screened, about 7,500 (2.1%) were called active. Inconclusive results, whose numbers are uncertain, are shown with a selection of clear calls. The call rests on the fitted dose curve; in most records, active means well fitted inhibition curve with a large enough effect; inconclusive means small, poorly fitted or top-dose-only effect, or effect the other way; inactive means flat fitted curve, though single readings scatter. A potency beside an inconclusive call is a rough fit, not a confirmed value.
On the % scale 0 is the no-effect control and ±100 the full control effect; potency means the concentration at half of the fitted maximal effect.

Assay: Nrf2 qHTS screen for inhibitors; further: nearly all actives have a fitted effect of over 60% in size
Settings: A549 ARE-Fluc reporter, luciferase luminescence, 18-24 h; activity change, negative = inhibition: at 46 µM (top of the series)
Summary of the method: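 Two sequential reads on A549 ARE_Fluc cells exposed to compound for 18-24 h: a CellTiter-Fluor fluorescence read for viability, then a luciferase luminescence read for Nrf2/ARE activity.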
For `Brc1ccc(-c2cn3ccccc3n2)cc1`, the Potency was inconclusive: 8.2 µM [activator, partial curve]. In the case of `COc1ccc(/C=C2/C(=O)ON=C2C)cc1Br`, the Potency is reported as inconclusive: 0.082 µM [falling, full curve, poor fit]. With `COC(=O)c1ccc(-n2nnc(-c3nc(-c4ccccc4Cl)no3)c2C)cc1` the Potency was inconclusive: 29.1 µM [activator, single point]. For `Cc1ccnc(NC(=O)CCCOc2cc(=O)n(C)c3ccccc23)c1`, the Potency was active: 4.11 µM. With `Cc1cc(NC(=O)C(C)C)n(-c2nc3ccccc3s2)n1` the Potency was inconclusive: 32.6 µM [activator, partial curve, poor fit]. In the case of `Cc1cc(S(=O)(=O)N2CCN(Cc3ccc4c(c3)OCO4)CC2)cc(C)c1N1CCCC1=O`, the Potency is reported as inconclusive: 18.4 µM [falling, single point]. For `CN(C)c1cccc(S(=O)(=O)N2CCN(S(=O)(=O)c3ccc4c(c3)OCCO4)CC2)c1`, the “activity change, negative = inhibition” value was inactive: 3.88%. For `Cc1cc(C)c2nc(C(F)(F)F)c(C#N)c(N)c2c1`, the Potency was inconclusive: 18.4 µM [falling, partial curve, poor fit]. In the case of `O=[N+]([O-])c1ccccc1S(=O)(=O)NC1CCCCCCC1`, the Potency is reported as inconclusive: 14.6 µM [falling, partial curve, poor fit]. With `CC1CCN(C(=S)c2ccc(N(C)C)cc2)CC1` the Potency was inconclusive: 25.9 µM [activator, partial curve, poor fit]. For `O=C(CC(c1ccco1)C1CCCCC1=O)c1ccccc1` (centres undefined), the Potency was inconclusive: 14.6 µM [falling, partial curve, poor fit]. With `O=C(NCC1CCCO1)c1nc2c(nnn2Cc2ccc(F)cc2)c(=O)[nH]1` (centres undefined) the Potency was inconclusive: 1.03 µM [falling, full curve, poor fit]. In the case of `CCc1nnc(NC(=O)C2CCCN2S(=O)(=O)c2ccc(F)cc2)s1` (centres undefined), the Potency is reported as inconclusive: 1.46 µM [activator, partial curve, poor fit]. For `CSCCC(=O)N1CC[C@@H](N2CCN(c3ccccc3F)CC2)[C@H](O)C1`, the Potency was inconclusive: 29.1 µM [falling, single point]. With `N#CC1CC(c2ccccc2)Nc2cc(Cl)ccc2N1` (centres undefined) the Potency was inconclusive: 7.31 µM [activator, partial curve]. With `Cc1ccc(-n2c(O)c(C=NCc3ccccn3)c3ccccc3c2=O)cc1C` the Potency was active: 10.3 µM. For `CC[C@H](C)Cc1cn([C@@H](CCCN=C(NC(=O)OC(C)(C)C)NC(=O)OC(C)(C)C)C(=O)NCCCCCCCCCCC(=O)N2CCN(C(=O)OC(C)(C)C)CC2)nn1`, the Potency was inconclusive: 18.4 µM [falling, single point]. For `CSCCC(NC(N)=O)C(=O)Nc1ccc2ccccc2c1` (centres undefined), the Potency was inconclusive: 29.1 µM [activator, single point]. For `Cc1ccc(NS(=O)(=O)c2ccc(C(=O)NCc3ccncc3)cc2)cc1`, the Potency was inconclusive: 25.9 µM [falling, single point]. In the case of `O=C(Nc1cccnc1)c1ccc([N+](=O)[O-])s1`, the Potency is reported as inconclusive: 18.4 µM [falling, partial curve]. In the case of `CCCNC(=O)c1ccc2c(c1)nc(C)n2-c1cccc(C)c1`, the Potency is reported as inconclusive: 3.26 µM [falling, single point]. For `CCOc1ccccc1Nc1nc(-c2sc(C)nc2C)cs1`, the Potency was inconclusive: 18.4 µM [activator, partial curve]. In the case of `O=C1CCC(=O)N1CCSC(=S)N1CCSCC1`, the Potency is reported as inconclusive: 23.1 µM [activator, single point]. In the case of `Cc1nn(C)c2c1c(C(F)(F)F)cc(=O)n2C(C)C(=O)NCCC(C)C` (centres undefined), the “activity change, negative = inhibition” value is reported as inactive: -16.1%. In the case of `Nc1nc(COc2ccccc2)cs1`, the Potency is reported as inconclusive: 18.4 µM [activator, single point]. With `Cc1ccc(N2C(=O)CS(=O)(=O)C23C(=O)N(Cc2ccccc2C)c2ccccc23)cc1Cl` (centres undefined) the Potency was inconclusive: 5.17 µM [falling, partial curve, poor fit]. With `CC1CCC2(CC1)Nc1ccccc1C(=O)N2c1ccccc1` (centres undefined) the Potency was inconclusive: 29.1 µM [activator, single point]. For `O=C1C(C=Nc2ccccc2O)=C(O)c2ccccc21`, the Potency was inconclusive: 20.6 µM [activator, single point]. With `CCCCNC(=S)NNC(=O)c1nn(C)cc1Cl` the Potency was inconclusive: 1.46 µM [falling, partial curve, poor fit]. With `CN(C)CC(O)c1ccc(C=Cc2ccc(Cl)cc2)cc1` (centres undefined) the Potency was inconclusive: 14.6 µM [activator, partial curve]. For `O=C(N/N=C\C=C\c1ccc2c(c1)OCO2)c1cccnc1`, the Potency was inconclusive: 0.184 µM [activator, partial curve, poor fit]. In the case of `Cc1sc2nc(CN(Cc3cccs3)C(=O)C3CC3)[nH]c(=O)c2c1C`, the Potency is reported as inconclusive: 29.1 µM [falling, single point]. In the case of `Cc1nc2ccn(Cc3ccco3)c(=O)c2cc1C(=O)Nc1ccc(F)cc1`, the “activity change, negative = inhibition” value is reported as inactive: -14.5%. For `CCOC(=O)C1=C(C)NC(C)=C(C(=O)OCC)C1C(=O)OCC(=O)NCc1ccco1`, the Potency was inconclusive: 16.4 µM [falling, single point]. With `Cc1ccc(OCC(=O)Nc2ccc3c(c2)sc(=O)n3C)cc1` the Potency was inconclusive: 0.0046 µM [activator, full curve, poor fit]. For `O=C(CCc1ccccc1Cl)Nc1ccc(S(=O)(=O)Nc2nccs2)cc1`, the Potency was inconclusive: 16.4 µM [falling, partial curve, poor fit]. For `COCC(C)n1c(C)cc(C(=O)COC(=O)c2n[nH]c3ccccc23)c1C` (centres undefined), the Potency was inconclusive: 0.517 µM [activator, full curve, poor fit]. With `COc1ccc(N2CCN(C(=O)c3ccc4c(=O)n(CCc5ccc(OC)c(OC)c5)c(=O)[nH]c4c3)CC2)cc1` the Potency was inconclusive: 16.4 µM [falling, single point]. In the case of `Cc1ccc(CNC(=O)c2oc3ccc(S(=O)(=O)N4CCC5(CC4)OCCO5)cc3c2C)cc1`, the Potency is reported as inconclusive: 29.1 µM [falling, single point]. In the case of `O=S(=O)(c1ccc(Cl)cc1)N1CCCC(c2nc(-c3ccc(F)cc3)no2)C1` (centres undefined), the Potency is reported as inconclusive: 10.3 µM [falling, partial curve]. For `O=C(Nc1ccccc1N1CCOCC1)c1ccc2c(c1)OCO2`, the Potency was inconclusive: 4.61 µM [falling, partial curve, poor fit]. For `COc1ccc(-n2c(=S)[nH]c3cc(C(=O)NCc4cccnc4)ccc3c2=O)cc1`, the Potency was inconclusive: 32.6 µM [falling, single point]. In the case of `O=C(Nc1ccc(Nc2ccccc2)cc1)c1ccc(Cl)cc1`, the Potency is reported as inconclusive: 6.51 µM [falling, full curve]. With `O=C(Nc1ccc(S(=O)(=O)Nc2cnc3ccccc3n2)cc1)c1cc(F)c(F)cc1Cl` the Potency was inconclusive: 13 µM [falling, partial curve, poor fit]. For `CCNC(=O)c1c(C)oc2ncn(C)c(=O)c12`, the Potency was inconclusive: 8.2 µM [activator, partial curve, poor fit]. In the case of `N#C/C(=C\c1ccc[nH]1)C(=O)Nc1ccccc1Cl`, the “activity change, negative = inhibition” value is reported as inactive: 9.34%. With `Cc1c(-c2ccccc2)nnn1-c1ccc(F)cc1F` the Potency was inconclusive: 13 µM [activator, partial curve, poor fit]. For `Cc1cccc(C)c1NC(=S)N(CCN(C)C)C(C)c1cccnc1` (centres undefined), the Potency was inconclusive: 6.51 µM [falling, single point]. In the case of `Cc1nn(CCCC(=O)Nc2cc(C(F)(F)F)ccc2Cl)c(=O)c2c1sc1ccccc12`, the Potency is reported as inconclusive: 0.461 µM [activator, full curve, poor fit]. For `CCn1c(=O)c2cc(S(=O)(=O)NCCOc3ccccc3)ccc2n(CC)c1=O`, the “activity change, negative = inhibition” value was inactive: -19%. With `Cc1cc(C)cc(N(C(=O)c2ccco2)C(C(=O)NC2CCCC2)c2ccncc2)c1` (centres undefined) the Potency was inconclusive: 20.6 µM [falling, single point]. In the case of `COc1ccc(C(=O)NCC(=O)OCc2ccc([N+](=O)[O-])cc2)cc1`, the Potency is reported as inconclusive: 1.46 µM [falling, partial curve, poor fit]. In the case of `CCOc1nc(C#N)nc(N(c2ccccc2)c2ccccc2)n1`, the “activity change, negative = inhibition” value is reported as inactive: -9.05%. For `COc1ccc(NC(=O)CN(C)C(=O)/C=C/c2cn(-c3ccccc3)nc2-c2ccc(F)cc2)cc1`, the Potency was inconclusive: 29.1 µM [falling, single point]. With `CCc1ccc(NC(=S)NCc2cccnc2)cc1` the Potency was inconclusive: 23.1 µM [falling, single point]. In the case of `CC(C)CCn1c(CN2CCN(c3cccc(Cl)c3)CC2)nc2c1c(=O)n(C)c(=O)n2C`, the Potency is reported as inconclusive: 8.2 µM [falling, partial curve, poor fit]. With `c1ccc2c(c1)Nc1nccnc1S2` the Potency was inconclusive: 3.66 µM [activator, full curve]. For `COc1ccc(Cc2nnc(NC(=O)CSc3ccc(C)cc3)s2)cc1`, the “activity change, negative = inhibition” value was inactive: -0.0799%. For `Cc1nn(-c2ccccc2)c(Cl)c1C(=O)NC1CCCCC1`, the “activity change, negative = inhibition” value was inactive: -22.9%. For `Cc1cc(C(=O)Nc2ccccn2)no1`, the Potency was inconclusive: 2.31 µM [activator, full curve]. In the case of `CC1CCCCN1S(=O)(=O)c1ccc(NC(=O)c2cccc(-n3cnnn3)c2)cc1` (centres undefined), the Potency is reported as inconclusive: 29.1 µM [falling, single point]. With `CC1=C(/C=C/C(C)=C/C=C/C(C)=C\C(=O)O)C(C)(C)CCC1` the “activity change, negative = inhibition” value was inactive: -11.3%. For `O=C(NCCCN1C(=O)c2ccccc2C1=O)OCc1ccccc1`, the Potency was inconclusive: 8.2 µM [falling, partial curve, poor fit]. With `O=C(Cn1ncc(Cl)c(Cl)c1=O)c1ccc2c(c1)OCCO2` the Potency was inconclusive: 29.1 µM [activator, partial curve, poor fit].
